Assay results as given in article PMC4391862.
No constants are given. Whether binding was seen depends on the method and setting. In cells and extracts the contact can be indirect. Some binding calls cover weakened binding; strength is not graded here.

Chains of the proteins cited; added tags and fusions are not shown.
UniProt P53779: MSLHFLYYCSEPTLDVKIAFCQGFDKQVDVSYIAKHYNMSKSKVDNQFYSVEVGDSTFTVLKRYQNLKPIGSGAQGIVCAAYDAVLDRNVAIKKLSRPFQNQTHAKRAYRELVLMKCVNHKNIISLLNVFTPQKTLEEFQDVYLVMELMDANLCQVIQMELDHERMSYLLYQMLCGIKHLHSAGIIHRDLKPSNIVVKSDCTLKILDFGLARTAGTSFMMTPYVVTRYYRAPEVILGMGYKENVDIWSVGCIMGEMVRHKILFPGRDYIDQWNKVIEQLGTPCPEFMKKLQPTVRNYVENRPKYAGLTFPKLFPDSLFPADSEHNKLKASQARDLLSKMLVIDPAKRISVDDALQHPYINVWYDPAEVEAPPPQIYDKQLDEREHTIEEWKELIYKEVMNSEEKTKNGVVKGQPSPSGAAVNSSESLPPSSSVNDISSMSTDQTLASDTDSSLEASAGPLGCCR
UniProt P32121: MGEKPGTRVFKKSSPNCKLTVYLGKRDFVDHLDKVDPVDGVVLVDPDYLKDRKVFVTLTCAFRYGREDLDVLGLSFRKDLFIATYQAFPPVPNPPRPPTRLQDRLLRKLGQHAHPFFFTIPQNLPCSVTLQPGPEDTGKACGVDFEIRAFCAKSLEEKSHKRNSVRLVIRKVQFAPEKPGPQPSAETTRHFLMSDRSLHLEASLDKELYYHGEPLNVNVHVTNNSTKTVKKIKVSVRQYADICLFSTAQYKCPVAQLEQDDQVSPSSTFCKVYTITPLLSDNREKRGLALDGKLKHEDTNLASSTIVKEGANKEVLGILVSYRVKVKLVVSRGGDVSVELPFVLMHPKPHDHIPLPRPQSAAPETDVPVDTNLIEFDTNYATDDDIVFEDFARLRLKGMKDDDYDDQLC

Biological target: JNK3 (human (endogenous in SH-SY5Y)) (UniProt P53779)
Assay: co-IP; endogenous proteins from SH-SY5Y cells; non-denaturing lysis buffer (20 mM Tris HCl pH 8.0, 137 mM NaCl, 10% glycerol, 1% NP-40, 2 mM EDTA), primary antibody overnight at 4°C, protein A sepharose; cells treated with MPP+ (3 mM, 12 hr) or vehicle, with or without JNK3-N-Tat or JNK3-4A-Tat (20 μM) 1 hr before

β-arrestin2 (from UniProt P32121 1-409)
binding: binds
